From PubChem BioAssay AID623959 (National Center for Advancing Translational Sciences (NCATS), 2012)
Fewer than 10 of roughly 1,400 compounds were called active. Calls come from the whole dose curve; as a rule, active = well fitted curve in the direction sought with a large enough effect; inconclusive = small, poorly fitted or top-dose-only effect, or another doubt; inactive = no such curve, though single readings can be large or run the other way. The inconclusive results got no clear call from the source. Potencies beside an inconclusive call are fits to weak or partial responses and may not hold up.
Potency is the fitted concentration of half-maximal effect.

Chains of the proteins cited; added tags and fusions are not shown.
UniProt Q8NER1, whole entry, looked up: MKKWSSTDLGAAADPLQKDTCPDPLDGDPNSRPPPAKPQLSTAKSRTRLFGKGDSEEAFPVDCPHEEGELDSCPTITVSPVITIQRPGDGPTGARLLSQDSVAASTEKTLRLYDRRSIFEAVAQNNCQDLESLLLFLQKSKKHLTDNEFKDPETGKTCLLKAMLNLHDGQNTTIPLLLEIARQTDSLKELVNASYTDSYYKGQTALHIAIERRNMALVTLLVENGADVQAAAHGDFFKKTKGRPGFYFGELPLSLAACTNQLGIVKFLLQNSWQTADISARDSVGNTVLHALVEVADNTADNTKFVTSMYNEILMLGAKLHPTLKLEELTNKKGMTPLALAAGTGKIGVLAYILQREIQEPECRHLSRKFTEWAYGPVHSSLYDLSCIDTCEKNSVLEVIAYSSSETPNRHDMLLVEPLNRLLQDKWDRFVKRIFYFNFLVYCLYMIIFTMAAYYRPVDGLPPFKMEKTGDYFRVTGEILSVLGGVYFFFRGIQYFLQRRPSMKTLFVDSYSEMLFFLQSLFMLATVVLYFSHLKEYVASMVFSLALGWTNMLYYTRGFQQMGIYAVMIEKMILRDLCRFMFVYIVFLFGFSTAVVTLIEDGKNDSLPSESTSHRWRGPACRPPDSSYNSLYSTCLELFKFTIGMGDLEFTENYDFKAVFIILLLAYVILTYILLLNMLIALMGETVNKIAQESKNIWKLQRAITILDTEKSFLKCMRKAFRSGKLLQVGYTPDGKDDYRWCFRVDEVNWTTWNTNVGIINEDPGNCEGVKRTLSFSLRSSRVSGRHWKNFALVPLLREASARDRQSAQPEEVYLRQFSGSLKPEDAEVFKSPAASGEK

The compounds below were run against Transient receptor potential cation channel subfamily V member 1 (Homo sapiens) (UniProt Q8NER1) (assay: qHTS Assay for Compounds that Act as Potentiators of the Vanilloid Receptor 1: Hit Validation). Settings: TRPV1-expressing cells, Fluo-8 calcium influx, capsaicin EC20.
Description: The transient receptor potential ion channel, family V, number 1, (TRPV1) is one of the most important molecular transducers of painful stimuli and a potential target for analgesic drug development. Although recent clinical trials with orthosteric antagonists have not produced a successful drug because of a hyperthermia side effect and their tendency to block thermal noxious pain, this ion channel is undeniably well placed in the pain pathway, and the idea of blocking pain signals before they enter the CNS is an excellent concept and of proven efficacy when TRPV1 agonists are used. We propose a new approach involving allosteric modulation to impose an activity-dependent constraint within the context of inflammation and tissue damage that would alter the responsiveness of the channel in a way that an orthosteric vanilloid antagonist cannot achieve. We believe that the allosteric modulator approach has not been explored for this target. The main goal of this proposal is to identify additional, new, potent allosteric modulators of TRPV1 that can be used to investigate TRPV1 function. Our recent report provides evidence of proof of concept, but the compounds are just at the edge of utility in terms of potency. […] The question of whether they can be used as analgesic agents is complex, but if suitable compounds are identified then testing for analgesic properties will be conducted. Compounds identified as agonists were re-tested in the primary screen for hit validation. NIH Chemical Genomics Center [NCGC] NIH Molecular Libraries Probe Centers Network [MLPCN] MLPCN Grant: MH089480 Assay Submitter (PI): Michael Iadarola, National Institute of Dental and Cranofacial Research
Upon TRPV1 activation in TRPV1 cells, the channel opens and extracellular cations flow through the channel into the cytosol. A calcium binding dye (Fluo-8) becomes fluorescent when bound to calcium. This dye is pre-loaded into cells and is used as a marker for calcium influx. The amount of accumulated calcium is precisely quantified using the FDSS kinetic reader and the calcium dye. For the HTS assay, freshly prepared cells are plated at a density of 2000/well in 3 ul medium in 1536-well plates and cultured overnight at 35.5C. […] Plates will be loaded into the FDSS kinetic reader and a 1 sec / cycle for 10 second baseline signal will be measured. Compound library will then be added with a pintool at 23 nl and measured kinetically for 3 minutes. This portion of the read is considered the agonist portion of the screen. […] Signal will be measured kinetically for an additional 2 minutes. This portion of the read is considered the allosteric enhancer portion of the screen. The FDSS reader has a standard filter set capable of measuring calcium bound Fluo-8 (ex=480 and em=520 nm).
For `COc1cc(C(c2c(O)c3ccccc3oc2=O)c2c(C)n(C)n(-c3ccccc3)c2=O)ccc1O` (centres undefined), the Potency was inconclusive: 2.3 µM [activator, partial curve].
With `Oc1cccc2nc3ccccc3nc12` the Potency was inconclusive: 2.9 µM [activator, partial curve, poor fit].
With `COc1cc(C=C2C(=O)NC(=O)NC2=O)ccc1O` the Potency was inconclusive: 16.3 µM [activator, partial curve, poor fit].
`CN1C(=O)C(=Cc2ccccc2Oc2ccc(Cl)c(F)c2)C(=O)N(C)C1=O` was tested, and the Potency was inconclusive: 25.8 µM [activator, partial curve, poor fit].
